For 40 targets, log2 fold change results are on record in the supplement of paper PMC10849652.

Protein sequences, listed by entry. Tags and fused reporters are not part of them. Lines headed by an entry give the natural chain unless they say otherwise; changes in a name come on top.
UniProt Q67FW5: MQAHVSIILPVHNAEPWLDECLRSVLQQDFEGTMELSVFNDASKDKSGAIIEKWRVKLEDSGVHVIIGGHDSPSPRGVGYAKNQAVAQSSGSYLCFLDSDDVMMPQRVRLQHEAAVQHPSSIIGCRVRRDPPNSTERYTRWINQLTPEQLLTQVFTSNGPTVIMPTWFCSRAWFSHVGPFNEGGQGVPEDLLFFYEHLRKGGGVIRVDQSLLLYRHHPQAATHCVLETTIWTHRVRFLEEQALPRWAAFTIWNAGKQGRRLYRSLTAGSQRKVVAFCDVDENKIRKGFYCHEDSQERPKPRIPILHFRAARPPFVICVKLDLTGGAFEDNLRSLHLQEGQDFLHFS
UniProt P53004: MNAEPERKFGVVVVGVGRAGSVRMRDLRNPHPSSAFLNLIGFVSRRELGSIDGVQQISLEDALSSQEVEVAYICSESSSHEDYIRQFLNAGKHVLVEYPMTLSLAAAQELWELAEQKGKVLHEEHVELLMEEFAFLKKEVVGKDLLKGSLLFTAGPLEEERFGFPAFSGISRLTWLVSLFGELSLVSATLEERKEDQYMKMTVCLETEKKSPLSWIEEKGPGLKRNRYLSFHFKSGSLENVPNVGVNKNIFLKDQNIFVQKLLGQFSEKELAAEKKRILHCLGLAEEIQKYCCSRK
UniProt Q9P287, whole entry, looked up: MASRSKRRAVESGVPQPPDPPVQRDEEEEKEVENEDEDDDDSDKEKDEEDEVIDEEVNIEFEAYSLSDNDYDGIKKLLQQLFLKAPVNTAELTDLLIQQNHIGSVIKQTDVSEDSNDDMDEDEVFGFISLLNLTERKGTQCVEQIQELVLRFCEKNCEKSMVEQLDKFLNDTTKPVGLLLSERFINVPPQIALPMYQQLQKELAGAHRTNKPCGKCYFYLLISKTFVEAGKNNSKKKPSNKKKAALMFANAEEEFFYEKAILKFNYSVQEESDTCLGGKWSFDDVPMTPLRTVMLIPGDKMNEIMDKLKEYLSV
UniProt Q8NFC6: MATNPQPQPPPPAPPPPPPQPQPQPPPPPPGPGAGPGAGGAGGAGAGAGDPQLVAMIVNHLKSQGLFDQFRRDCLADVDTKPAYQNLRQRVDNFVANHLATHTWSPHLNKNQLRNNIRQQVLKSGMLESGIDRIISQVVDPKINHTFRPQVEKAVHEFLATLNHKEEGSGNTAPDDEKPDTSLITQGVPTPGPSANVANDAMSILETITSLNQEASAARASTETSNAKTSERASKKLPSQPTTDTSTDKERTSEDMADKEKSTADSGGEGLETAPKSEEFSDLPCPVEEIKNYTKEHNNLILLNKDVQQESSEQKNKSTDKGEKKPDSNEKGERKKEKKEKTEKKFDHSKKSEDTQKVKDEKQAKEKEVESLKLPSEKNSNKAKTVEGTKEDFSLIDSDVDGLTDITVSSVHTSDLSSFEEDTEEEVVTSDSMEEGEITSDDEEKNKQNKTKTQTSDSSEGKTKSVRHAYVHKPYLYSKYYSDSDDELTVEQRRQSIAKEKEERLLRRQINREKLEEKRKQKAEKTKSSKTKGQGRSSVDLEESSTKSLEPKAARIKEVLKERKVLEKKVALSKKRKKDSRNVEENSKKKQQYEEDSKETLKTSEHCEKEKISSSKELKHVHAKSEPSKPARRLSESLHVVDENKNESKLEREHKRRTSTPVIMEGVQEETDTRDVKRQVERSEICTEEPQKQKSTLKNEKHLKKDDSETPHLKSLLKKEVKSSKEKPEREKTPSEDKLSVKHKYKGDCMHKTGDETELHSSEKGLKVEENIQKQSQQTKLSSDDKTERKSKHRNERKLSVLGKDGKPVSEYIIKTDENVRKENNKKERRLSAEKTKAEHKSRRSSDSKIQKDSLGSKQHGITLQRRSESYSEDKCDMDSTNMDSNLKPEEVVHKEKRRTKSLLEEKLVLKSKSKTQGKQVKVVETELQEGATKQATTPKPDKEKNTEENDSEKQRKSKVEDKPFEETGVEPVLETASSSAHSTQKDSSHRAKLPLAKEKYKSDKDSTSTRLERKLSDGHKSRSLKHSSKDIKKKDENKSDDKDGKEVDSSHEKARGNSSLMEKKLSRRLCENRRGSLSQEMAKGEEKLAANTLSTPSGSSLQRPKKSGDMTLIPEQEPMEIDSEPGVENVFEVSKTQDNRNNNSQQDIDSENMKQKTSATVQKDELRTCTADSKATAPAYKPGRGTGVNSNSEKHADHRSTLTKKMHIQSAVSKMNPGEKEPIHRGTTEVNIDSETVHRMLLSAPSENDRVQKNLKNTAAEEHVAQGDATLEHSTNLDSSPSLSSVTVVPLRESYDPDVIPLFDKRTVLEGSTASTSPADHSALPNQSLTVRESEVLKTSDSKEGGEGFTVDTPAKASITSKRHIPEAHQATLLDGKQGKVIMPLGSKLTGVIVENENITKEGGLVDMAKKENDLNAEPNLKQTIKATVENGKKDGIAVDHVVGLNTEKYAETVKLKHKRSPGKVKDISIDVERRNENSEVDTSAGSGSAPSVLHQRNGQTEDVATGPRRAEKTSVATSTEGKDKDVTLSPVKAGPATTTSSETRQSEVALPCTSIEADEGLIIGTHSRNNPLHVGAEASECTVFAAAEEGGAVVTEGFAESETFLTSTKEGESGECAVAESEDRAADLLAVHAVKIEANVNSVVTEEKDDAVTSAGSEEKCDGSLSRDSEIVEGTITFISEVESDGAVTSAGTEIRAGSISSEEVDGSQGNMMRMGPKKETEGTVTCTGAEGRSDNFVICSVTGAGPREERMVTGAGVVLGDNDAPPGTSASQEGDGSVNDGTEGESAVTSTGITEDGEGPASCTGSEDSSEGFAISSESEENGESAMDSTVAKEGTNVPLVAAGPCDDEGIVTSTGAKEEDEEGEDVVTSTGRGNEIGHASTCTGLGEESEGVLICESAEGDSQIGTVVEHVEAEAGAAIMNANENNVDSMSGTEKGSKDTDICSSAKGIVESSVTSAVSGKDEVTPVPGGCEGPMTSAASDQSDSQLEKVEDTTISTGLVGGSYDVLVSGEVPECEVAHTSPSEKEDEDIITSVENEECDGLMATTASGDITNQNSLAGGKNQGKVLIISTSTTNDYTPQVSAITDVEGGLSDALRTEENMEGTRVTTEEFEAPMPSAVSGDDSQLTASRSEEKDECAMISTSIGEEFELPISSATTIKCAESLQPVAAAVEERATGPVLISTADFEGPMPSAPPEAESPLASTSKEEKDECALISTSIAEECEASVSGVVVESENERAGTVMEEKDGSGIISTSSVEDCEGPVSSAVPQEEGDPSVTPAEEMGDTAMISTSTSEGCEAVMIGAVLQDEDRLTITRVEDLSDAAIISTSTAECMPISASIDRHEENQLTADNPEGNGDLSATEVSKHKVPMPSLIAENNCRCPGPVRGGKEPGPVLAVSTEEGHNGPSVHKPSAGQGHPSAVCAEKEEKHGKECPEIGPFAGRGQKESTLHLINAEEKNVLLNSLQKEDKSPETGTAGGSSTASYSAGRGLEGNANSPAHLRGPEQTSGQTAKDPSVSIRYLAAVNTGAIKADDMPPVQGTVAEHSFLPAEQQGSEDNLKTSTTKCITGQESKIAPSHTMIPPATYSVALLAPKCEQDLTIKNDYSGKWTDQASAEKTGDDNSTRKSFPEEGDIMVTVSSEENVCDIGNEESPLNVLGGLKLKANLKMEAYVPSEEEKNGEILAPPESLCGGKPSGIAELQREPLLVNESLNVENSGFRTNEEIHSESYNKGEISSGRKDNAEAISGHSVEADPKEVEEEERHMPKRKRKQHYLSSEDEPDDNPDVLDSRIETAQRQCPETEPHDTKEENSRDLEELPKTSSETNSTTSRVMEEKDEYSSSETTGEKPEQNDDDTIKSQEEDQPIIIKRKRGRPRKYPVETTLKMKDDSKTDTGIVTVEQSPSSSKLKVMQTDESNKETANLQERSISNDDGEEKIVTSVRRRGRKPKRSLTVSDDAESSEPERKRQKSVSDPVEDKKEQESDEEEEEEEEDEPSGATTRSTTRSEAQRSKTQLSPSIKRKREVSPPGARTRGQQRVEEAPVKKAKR
UniProt O60512: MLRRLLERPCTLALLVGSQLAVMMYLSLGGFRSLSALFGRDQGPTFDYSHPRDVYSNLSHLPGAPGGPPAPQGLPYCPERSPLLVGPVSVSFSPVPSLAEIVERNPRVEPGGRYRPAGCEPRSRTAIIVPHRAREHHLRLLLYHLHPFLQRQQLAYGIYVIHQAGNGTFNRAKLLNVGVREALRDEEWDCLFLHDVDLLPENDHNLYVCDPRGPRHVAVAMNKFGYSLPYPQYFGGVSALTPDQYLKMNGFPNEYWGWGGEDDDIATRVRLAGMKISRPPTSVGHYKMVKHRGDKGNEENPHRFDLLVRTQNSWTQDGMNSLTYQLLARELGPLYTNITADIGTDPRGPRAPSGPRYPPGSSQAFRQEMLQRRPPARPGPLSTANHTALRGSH
UniProt Q8NBF6: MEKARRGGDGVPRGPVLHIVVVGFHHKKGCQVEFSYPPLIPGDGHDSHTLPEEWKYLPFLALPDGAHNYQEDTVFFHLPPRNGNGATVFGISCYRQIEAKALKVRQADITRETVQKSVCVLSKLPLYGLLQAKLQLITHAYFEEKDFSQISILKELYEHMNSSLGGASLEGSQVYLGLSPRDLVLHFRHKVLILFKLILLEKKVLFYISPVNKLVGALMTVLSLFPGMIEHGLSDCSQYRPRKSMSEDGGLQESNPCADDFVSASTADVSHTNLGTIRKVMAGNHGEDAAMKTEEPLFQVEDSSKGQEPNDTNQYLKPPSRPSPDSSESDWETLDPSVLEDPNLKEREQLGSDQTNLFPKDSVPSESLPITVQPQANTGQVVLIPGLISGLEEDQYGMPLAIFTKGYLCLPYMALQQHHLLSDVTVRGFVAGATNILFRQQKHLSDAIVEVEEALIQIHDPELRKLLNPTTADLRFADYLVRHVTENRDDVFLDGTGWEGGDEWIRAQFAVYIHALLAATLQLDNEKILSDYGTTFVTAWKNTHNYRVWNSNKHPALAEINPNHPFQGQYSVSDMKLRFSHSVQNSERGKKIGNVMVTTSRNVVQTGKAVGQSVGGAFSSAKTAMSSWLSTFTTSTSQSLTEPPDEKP
UniProt Q96GS4: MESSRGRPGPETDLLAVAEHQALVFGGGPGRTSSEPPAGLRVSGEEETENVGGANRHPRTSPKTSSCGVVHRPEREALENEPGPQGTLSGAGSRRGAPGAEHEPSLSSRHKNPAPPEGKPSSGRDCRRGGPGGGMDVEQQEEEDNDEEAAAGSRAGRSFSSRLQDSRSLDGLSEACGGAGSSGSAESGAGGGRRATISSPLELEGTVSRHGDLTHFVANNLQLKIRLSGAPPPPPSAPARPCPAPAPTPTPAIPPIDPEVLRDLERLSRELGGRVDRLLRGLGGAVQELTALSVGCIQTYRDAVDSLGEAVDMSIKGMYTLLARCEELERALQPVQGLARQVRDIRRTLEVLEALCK
UniProt Q92843: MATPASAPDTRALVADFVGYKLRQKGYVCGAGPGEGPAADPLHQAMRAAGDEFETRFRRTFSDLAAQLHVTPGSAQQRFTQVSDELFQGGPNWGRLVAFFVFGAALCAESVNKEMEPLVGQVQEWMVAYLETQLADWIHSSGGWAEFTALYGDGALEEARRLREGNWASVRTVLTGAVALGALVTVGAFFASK
UniProt Q13490, whole entry, looked up: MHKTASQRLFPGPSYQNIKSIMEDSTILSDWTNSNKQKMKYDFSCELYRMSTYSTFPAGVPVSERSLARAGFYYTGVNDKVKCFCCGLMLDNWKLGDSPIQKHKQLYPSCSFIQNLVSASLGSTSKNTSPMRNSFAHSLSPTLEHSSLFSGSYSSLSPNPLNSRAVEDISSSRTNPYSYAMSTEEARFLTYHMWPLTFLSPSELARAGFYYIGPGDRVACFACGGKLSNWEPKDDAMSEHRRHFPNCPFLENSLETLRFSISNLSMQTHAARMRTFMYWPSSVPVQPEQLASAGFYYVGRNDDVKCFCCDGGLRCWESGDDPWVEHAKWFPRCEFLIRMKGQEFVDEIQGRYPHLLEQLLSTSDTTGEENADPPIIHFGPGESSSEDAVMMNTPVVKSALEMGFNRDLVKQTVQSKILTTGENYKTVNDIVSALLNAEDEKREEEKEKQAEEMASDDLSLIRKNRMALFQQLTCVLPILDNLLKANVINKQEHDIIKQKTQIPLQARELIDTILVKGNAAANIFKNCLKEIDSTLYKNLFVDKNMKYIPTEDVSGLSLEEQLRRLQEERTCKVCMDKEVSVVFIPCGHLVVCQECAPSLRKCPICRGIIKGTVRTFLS
UniProt O94766: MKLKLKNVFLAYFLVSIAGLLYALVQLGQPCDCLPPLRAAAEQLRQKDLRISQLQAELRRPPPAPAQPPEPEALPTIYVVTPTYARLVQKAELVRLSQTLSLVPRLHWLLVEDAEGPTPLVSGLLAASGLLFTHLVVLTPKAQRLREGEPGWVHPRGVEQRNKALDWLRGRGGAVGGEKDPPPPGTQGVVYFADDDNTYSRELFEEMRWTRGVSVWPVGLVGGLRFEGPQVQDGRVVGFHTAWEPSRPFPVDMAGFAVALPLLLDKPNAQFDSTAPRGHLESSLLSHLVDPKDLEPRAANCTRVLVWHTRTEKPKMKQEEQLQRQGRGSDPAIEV

Some of the results follow.

Compound in one assay: CC(C)(C)Cn1c(N)nc2ccc(-c3[nH]c(C(C)(C)C)nc3-c3ccc(F)cc3)nc21 [ralimetinib]
In words: log2 fold change, soluble protein after heating vs DMSO (PISA); higher = thermal stabilisation; K562 cells, 10 uM, 30 min; active = over 0.2 and 3.5 SD of the protein, either way, in both replicates (recomputed). Summed up:
(§1)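 Thermal stability values are relative to control samples and come from duplicates. They are expressed as log2 fold changes. For measurement, K562 cells (2×10^6 cells/mL) received 10 μM compound for 30 min, and aliquots were heated for 3 min over 48°C-58°C, pooled, and extracted at 4°C in PBS with 0.5% NP-40. Soluble protein, the supernatant after 21,000xg for 90 min, was quantified by TMTpro 16plex LC-MS/MS with equalised channel sums.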
As for B3GNTL1 (UniProt Q67FW5), the log2 fold change was inactive: 0.207.

On to BCAS2 (UniProt O75934), for which the log2 fold change was inactive: 0.058. On the same count and under the same terms, under BLOC1S6 (UniProt Q9UL45) stands inactive: -0.055; under BLVRA (UniProt P53004), inactive: -0.044. With BOP1 (UniProt Q14137), the log2 fold change is inactive: 0.041. On the same count and under the same terms, with BCS1L (UniProt Q9Y276) the figure was inactive: -0.052; with BRCC3 (UniProt P46736), inactive: -0.03. Same read-out and setting: with BCCIP isoform 2 (UniProt Q9P287) the figure was inactive: -0.048; with BOD1L1 (UniProt Q8NFC6), inactive: 0.037; with B3GNT2 (UniProt Q9NY97), inactive: -0.035. Same read-out and setting: under B4GALT3 (UniProt O60512) stands inactive: -0.096; under AVL9 (UniProt Q8NBF6), inactive: -0.047; under BAP1 (UniProt Q92560), inactive: 0.06. For BLOC1S2 (UniProt Q6QNY1), the log2 fold change was inactive: -0.042. As to BCAP29 isoform 2 (UniProt Q9UHQ4), the log2 fold change is inactive: -0.094.

For BRAT1 (UniProt Q6PJG6), the log2 fold change is inactive: 0.021. Still for that read-out and setting: with BORCS6 (UniProt Q96GS4) the figure was inactive: -0.037.

For the target AURKA (UniProt O14965), the log2 fold change was inactive: 0.062.

Compound in the next assay: CC(C)(O)CC(=O)NCCn1ccc2ncnc(Nc3ccc(Oc4cccc(C(F)(F)F)c4)c(Cl)c3)c21
The assay is described as above. In short, it runs like this:
as §1
Regarding ATXN2 (UniProt Q99700), the log2 fold change is inactive: 0.025. On the same count and under the same terms, with BCAR1 isoform 6 (UniProt P56945) the figure was inactive: -0.026; with BPGM (UniProt P07738), inactive: -0.022; with BRAP (UniProt Q7Z569), inactive: -0.016. As to BAX isoform 2 (UniProt Q07812), the log2 fold change was inactive: 0.033. In the case of BPHL (UniProt Q86WA6), the log2 fold change is inactive: -0.023. With BCL2L2 isoform 2 (UniProt Q92843), the log2 fold change is inactive: 0.132. Same read-out and setting: with BACH1 (UniProt O14867) the figure was inactive: 0.002.

Consider BAIAP2L1 (UniProt Q9UHR4), for which the log2 fold change is inactive: -0.008. The same measure, in the same setting: with BCCIP (UniProt Q9P287) the figure was inactive: 0.002. Still for that read-out and setting: with BLOC1S4 (UniProt Q9NUP1) the figure was inactive: -0.026; with BICD2 isoform 2 (UniProt Q8TD16), inactive: -0.078. Turning to BAG6 isoform 3 (UniProt P46379), the log2 fold change was inactive: -0.034. Still for that read-out and setting: under BRIX1 (UniProt Q8TDN6) stands inactive: 0.091; under AUP1 (UniProt Q9Y679), inactive: -0.164. Still for that read-out and setting: with B4GALT1 (UniProt P15291) the figure was inactive: 0.094; with BIRC2 (UniProt Q13490), inactive: 0.017. The same measure, in the same setting: with ATXN7L3B (UniProt Q96GX2) the figure was inactive: 0; with ATXN2L (UniProt Q8WWM7), inactive: 0.013; with BORCS5 (UniProt Q969J3), inactive: 0.273. B3GAT3 (UniProt O94766): the log2 fold change is inactive: -0.066.

Turning to BNIP2 (UniProt J3KN59), the log2 fold change is inactive: 0.1. Same read-out and setting: under B3GNTL1 (UniProt Q67FW5) stands inactive: -0.15.

As for BCAS2 (UniProt O75934), the log2 fold change is inactive: -0.053.

Take BLOC1S6 (UniProt Q9UL45): the log2 fold change was inactive: -0.183.

As to BLVRA (UniProt P53004), the log2 fold change was inactive: -0.09. The same measure, in the same setting: with BOP1 (UniProt Q14137) the figure was inactive: 0.119; with BCS1L (UniProt Q9Y276), inactive: -0.001; with BRCC3 (UniProt P46736), inactive: -0.019. On the same count and under the same terms, under BCCIP isoform 2 (UniProt Q9P287) stands inactive: 0.012. Same read-out and setting: under BOD1L1 (UniProt Q8NFC6) stands inactive: 0.056; under B3GNT2 (UniProt Q9NY97), inactive: -0.06; under B4GALT3 (UniProt O60512), inactive: 0.036. For the target AVL9 (UniProt Q8NBF6), the log2 fold change is inactive: -0.038.

For BAP1 (UniProt Q92560), the log2 fold change is inactive: -0.014. On the same count and under the same terms, with BLOC1S2 (UniProt Q6QNY1) the figure was inactive: 0.032; with BCAP29 isoform 2 (UniProt Q9UHQ4), inactive: 0.111; with BRAT1 (UniProt Q6PJG6), inactive: -0.098. Regarding BORCS6 (UniProt Q96GS4), the log2 fold change is inactive: -0.037. Still for that read-out and setting: with AURKA (UniProt O14965) the figure was inactive: -0.056.
